According to publication doi:10.1101/320978:
Results are given in words; binding and its absence hold for the method and conditions named. Some entries that bind do so weakly or less than the wild type.

T1: EGL-44 (C. elegans) (UniProt Q19849)
T1 sequence: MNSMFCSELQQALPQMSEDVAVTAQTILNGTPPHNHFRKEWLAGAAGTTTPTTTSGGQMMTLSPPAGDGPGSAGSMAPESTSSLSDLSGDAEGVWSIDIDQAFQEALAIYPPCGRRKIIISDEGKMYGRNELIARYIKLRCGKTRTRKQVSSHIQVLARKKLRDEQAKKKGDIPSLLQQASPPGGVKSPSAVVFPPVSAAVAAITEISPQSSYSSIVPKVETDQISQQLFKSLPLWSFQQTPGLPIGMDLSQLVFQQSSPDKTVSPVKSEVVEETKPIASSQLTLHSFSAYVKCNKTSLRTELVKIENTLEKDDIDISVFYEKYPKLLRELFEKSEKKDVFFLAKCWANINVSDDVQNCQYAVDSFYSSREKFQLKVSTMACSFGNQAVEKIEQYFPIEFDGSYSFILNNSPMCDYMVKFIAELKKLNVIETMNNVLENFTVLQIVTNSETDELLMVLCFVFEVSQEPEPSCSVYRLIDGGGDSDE

T2: EGL-46 (C. elegans) (UniProt G5EFY4)
T2 sequence: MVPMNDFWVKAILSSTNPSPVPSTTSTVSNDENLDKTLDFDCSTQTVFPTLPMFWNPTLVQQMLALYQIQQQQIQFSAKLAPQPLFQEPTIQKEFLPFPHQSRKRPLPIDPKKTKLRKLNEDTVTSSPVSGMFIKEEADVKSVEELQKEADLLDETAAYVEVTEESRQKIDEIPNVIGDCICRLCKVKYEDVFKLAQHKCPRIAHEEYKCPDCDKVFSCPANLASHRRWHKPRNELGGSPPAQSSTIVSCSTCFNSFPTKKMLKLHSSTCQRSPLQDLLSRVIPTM

T3: MEC-3 (C. elegans) (UniProt P09088)
T3 sequence: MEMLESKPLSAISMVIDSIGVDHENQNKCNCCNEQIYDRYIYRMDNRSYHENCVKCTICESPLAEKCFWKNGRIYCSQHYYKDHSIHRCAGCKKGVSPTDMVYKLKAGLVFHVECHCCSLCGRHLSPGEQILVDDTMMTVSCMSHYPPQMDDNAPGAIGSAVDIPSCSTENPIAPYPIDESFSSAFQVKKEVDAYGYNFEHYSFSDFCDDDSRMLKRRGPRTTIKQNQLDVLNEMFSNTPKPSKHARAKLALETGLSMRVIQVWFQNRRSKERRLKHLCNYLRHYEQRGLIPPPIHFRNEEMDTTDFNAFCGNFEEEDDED


Assays:
Experiment in all cases: two-hybrid
EGL-44 (C. elegans) = target: T1, EGL-44 (C. elegans)
EGL-46 (C. elegans) = target: T2, EGL-46 (C. elegans)
MEC-3 (C. elegans) = target: T3, MEC-3 (C. elegans)

| Binder | binding (EGL-44 (C. elegans)) | binding (EGL-46 (C. elegans)) | binding (MEC-3 (C. elegans)) |
| --- | --- | --- | --- |
| EGL-46 (protein, UniProt G5EFY4 1-286) MVPMNDFWVKAILSSTNPSPVPSTTSTVSNDENLDKTLDFDCSTQTVFPTLPMFWNPTLVQQMLALYQIQQQQIQFSAKLAPQPLFQEPTIQKEFLPFPHQSRKRPLPIDPKKTKLRKLNEDTVTSSPVSGMFIKEEADVKSVEELQKEADLLDETAAYVEVTEESRQKIDEIPNVIGDCICRLCKVKYEDVFKLAQHKCPRIAHEEYKCPDCDKVFSCPANLASHRRWHKPRNELGGSPPAQSSTIVSCSTCFNSFPTKKMLKLHSSTCQRSPLQDLLSRVIPTM | binds |  |  |
| ZAG-1 (protein, UniProt G5EBU4 1-596) MVDIAEAMPTTASSLPSDEALRKFKCPECTKAFKFKHHLKEHIRIHSGEKPFECQQCHKRFSHSGSYSSHMSSKKCVQQASPSMVTPFNPYQLMMYRNIMLQLQTPQVSFLPSTAANNMDYMSLLQANLFQSLENGTSPTPTQEPSAPASPEPKIEVVDEPEVSSEVKTEVKTEVKTEDSVPEESITPAVSMSLSPAPEQNGNESMNNGGSGSDGKSSPDWRPLRSRSFLNDSQVAVLQNHFKRNPFPSKYELSAVAEQIGVNKRVVQVWFQNTRAKERRSNRLPSMPRGSVASAAAAAATSPTVWQTPVQLMAAWASQFSNGNNSLTASQDERNNENTDEVMDHDGLKDGKETPLDLTLSTDDTEPEWSPEKLIGFLDQTGGVIQELLRQAGNGFVTNQEDEEEKPIKAEESPVSSGSSSIWPSFIGQYPSILDSASLSVLEKALDQQKSSEDDASSLCSNESKLLKFPTTPLKEEEGLFSCDQCDKVFGKQSSLARHKYEHSGQRPYKCDICEKAFKHKHHLTEHKRLHSGEKPFQCDKCLKRFSHSGSYSQHMNHRYSYCKPYREQPASPSDVLNGGSVTVSPSSSNTPPPST | no binding | no binding | no binding |
| MEC-3 (protein, UniProt P09088 1-321) MEMLESKPLSAISMVIDSIGVDHENQNKCNCCNEQIYDRYIYRMDNRSYHENCVKCTICESPLAEKCFWKNGRIYCSQHYYKDHSIHRCAGCKKGVSPTDMVYKLKAGLVFHVECHCCSLCGRHLSPGEQILVDDTMMTVSCMSHYPPQMDDNAPGAIGSAVDIPSCSTENPIAPYPIDESFSSAFQVKKEVDAYGYNFEHYSFSDFCDDDSRMLKRRGPRTTIKQNQLDVLNEMFSNTPKPSKHARAKLALETGLSMRVIQVWFQNRRSKERRLKHLCNYLRHYEQRGLIPPPIHFRNEEMDTTDFNAFCGNFEEEDDED | no binding | no binding |  |
